Paper PMC5917423
Results are given in words; binding and its absence hold for the method and conditions named. In cells and extracts the contact can be indirect. Binding calls can cover weak binding; strength is not graded here.

Biological target: T1, Epstein-Barr virus tegument protein BGLF2, wild type (Epstein-Barr virus (B95-8)) (UniProt P0CK53)
T1 sequence: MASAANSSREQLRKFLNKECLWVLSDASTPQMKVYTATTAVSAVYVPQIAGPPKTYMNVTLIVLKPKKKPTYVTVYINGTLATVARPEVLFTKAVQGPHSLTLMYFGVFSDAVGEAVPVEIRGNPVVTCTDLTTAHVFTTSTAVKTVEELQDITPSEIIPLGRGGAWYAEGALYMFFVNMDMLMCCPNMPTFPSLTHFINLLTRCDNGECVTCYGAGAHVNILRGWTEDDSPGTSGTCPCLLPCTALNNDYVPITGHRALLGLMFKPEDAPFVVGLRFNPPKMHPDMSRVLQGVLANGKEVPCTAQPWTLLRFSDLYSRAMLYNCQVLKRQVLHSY
Assay: co-IP; HEK293T cells transfected with BGLF2 vectors, 24 h; lysis in 20 mM Tris-HCl pH 7.8, 150 mM NaCl, 0.5% NP-40, 1 mM EDTA with protease and phosphatase inhibitors; IP with anti-FLAG mouse antibody and protein G Sepharose at 4°C for >2 h; four washes; immunoblot

## p38 MAPK (human (endogenous in HEK293T)) (enzyme)
  binding: binds
